# The supplement of paper PMC8728848
# Some of the results follow.
# How the values were obtained:
# Assay in all cases: glycan array binding signal (z-score within array); higher = stronger binding
# Details in all cases: glycan notation: IUPAC condensed, linker removed
# Fuc(a1-2)Gal = target: Fuc(a1-2)Gal
# Procedure, shortened: (§1)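 Columns mapping to the same glycan were averaged after glycan names were converted to IUPAC-condensed notation. The data come from 3228 arrays in the Consortium for Functional Glycomics database, limited to those with an available protein sequence. Binding is reported as a within-array Z-score averaged across arrays of one protein sequence and across linkers.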
# Fuc(a1-2)Gal(b1-3)GalNAc = target: Fuc(a1-2)Gal(b1-3)GalNAc
# Procedure, shortened: as §1
# [1] = target: Fuc(a1-2)Gal(b1-3)GalNAc(a1-3)[Fuc(a1-2)]Gal(b1-4)Glc
# Procedure, shortened: as §1
# [2] = target: Fuc(a1-2)Gal(b1-3)GalNAc(a1-3)[Fuc(a1-2)]Gal(b1-4)GlcNAc
# Procedure, shortened: as §1
# [3] = target: Fuc(a1-2)Gal(b1-3)GalNAc(b1-3)Gal
# Procedure, shortened: as §1
# [4] = target: Fuc(a1-2)Gal(b1-3)GalNAc(b1-3)Gal(a1-4)Gal(b1-4)Glc
# Procedure, shortened: as §1
# [5] = target: Fuc(a1-2)Gal(b1-3)GalNAc(b1-4)[Neu5Ac(a2-3)]Gal(b1-4)Glc
# Procedure, shortened: as §1
# Fuc(a1-2)Gal(b1-3)GlcNAc = target: Fuc(a1-2)Gal(b1-3)GlcNAc
# Procedure, shortened: as §1
# [6] = target: Fuc(a1-2)Gal(b1-3)GlcNAc(b1-2)Man(a1-3)[Fuc(a1-2)Gal(b1-3)GlcNAc(b1-2)Man(a1-6)]Man(b1-4)GlcNAc(b1-4)GlcNAc
# Procedure, shortened: as §1
# [7] = target: Fuc(a1-2)Gal(b1-3)GlcNAc(b1-2)Man(a1-3)[Fuc(a1-2)Gal(b1-3)GlcNAc(b1-2)Man(a1-6)]Man(b1-4)GlcNAc(b1-4)[Fuc(a1-6)]GlcNAc
# Procedure, shortened: as §1
# [8] = target: Fuc(a1-2)Gal(b1-3)GlcNAc(b1-3)Gal(b1-4)Glc
# Procedure, shortened: as §1
# [9] = target: Fuc(a1-2)Gal(b1-3)GlcNAc(b1-3)GalNAc
# Procedure, shortened: as §1
# [10] = target: Fuc(a1-2)Gal(b1-3)GlcNAc(b1-3)[Fuc(a1-2)Gal(b1-3)GlcNAc(b1-6)]GalNAc
# Procedure, shortened: as §1
# [11] = target: Fuc(a1-2)Gal(b1-3)GlcNAc(b1-3)[Gal(b1-4)GlcNAc(b1-6)]Gal(b1-4)Glc
# Procedure, shortened: as §1
# [12] = target: Fuc(a1-2)Gal(b1-3)GlcNAc(b1-3)[Neu5Ac(a2-6)Gal(b1-4)GlcNAc(b1-6)]Gal(b1-4)Glc
# Procedure, shortened: as §1
# [13] = target: Fuc(a1-2)Gal(b1-3)GlcNAc6S
# Procedure, shortened: as §1
# [14] = target: Fuc(a1-2)Gal(b1-3)[Fuc(a1-4)]GlcNAc
# Procedure, shortened: as §1
# [15] = target: Fuc(a1-2)Gal(b1-3)[Fuc(a1-4)]GlcNAc(b1-2)Man(a1-3)[Fuc(a1-2)Gal(b1-3)[Fuc(a1-4)]GlcNAc(b1-2)Man(a1-3)]Man(b1-4)GlcNAc(b1-4)GlcNAc
# Procedure, shortened: as §1
# [16] = target: Fuc(a1-2)Gal(b1-3)[Fuc(a1-4)]GlcNAc(b1-2)Man(a1-3)[Fuc(a1-2)Gal(b1-3)[Fuc(a1-4)]GlcNAc(b1-2)Man(a1-6)]Man(b1-4)GlcNAc(b1-4)[Fuc(a1-6)]GlcNAc(b1-4)[Fuc(a1-6)]GlcNAc
# Procedure, shortened: as §1
# [17] = target: Fuc(a1-2)Gal(b1-3)[Fuc(a1-4)]GlcNAc(b1-3)[Fuc(a1-3)[Gal(b1-4)]GlcNAc(b1-6)]Gal(b1-4)Glc
# Procedure, shortened: as §1
# [18] = target: Fuc(a1-2)Gal(b1-3)[Fuc(a1-4)]GlcNAc(b1-3)[Gal(b1-4)GlcNAc(b1-6)]Gal(b1-4)Glc
# Procedure, shortened: as §1
# [19] = target: Fuc(a1-2)Gal(b1-4)Fuc(a1-3)]GlcNAc(b1-2)Man(a1-3)[Fuc(a1-2)Gal(b1-4)[Fuc(a1-3)]GlcNAc(b1-2)Man(a1-6)]Man(b1-4)GlcNAc(b1-4)GlcNAc
# Procedure, shortened: as §1
# Fuc(a1-2)Gal(b1-4)Glc = target: Fuc(a1-2)Gal(b1-4)Glc
# Procedure, shortened: as §1
# Fuc(a1-2)Gal(b1-4)Glc6S = target: Fuc(a1-2)Gal(b1-4)Glc6S
# Procedure, shortened: as §1
# Fuc(a1-2)Gal(b1-4)GlcNAc = target: Fuc(a1-2)Gal(b1-4)GlcNAc
# Procedure, shortened: as §1
# [20] = target: Fuc(a1-2)Gal(b1-4)GlcNAc(b1-2)Man
# Procedure, shortened: as §1
# [21] = target: Fuc(a1-2)Gal(b1-4)GlcNAc(b1-2)Man(a1-3)[Fuc(a1-2)Gal(b1-4)GlcNAc(b1-2)Man(a1-6)]Man(b1-4)GlcNAc(b1-4)GlcNAc
# Procedure, shortened: as §1
# [22] = target: Fuc(a1-2)Gal(b1-4)GlcNAc(b1-2)Man(a1-3)[Fuc(a1-2)Gal(b1-4)GlcNAc(b1-2)Man(a1-6)]Man(b1-4)GlcNAc(b1-4)[Fuc(a1-6)]GlcNAc
# Procedure, shortened: as §1
# [23] = target: Fuc(a1-2)Gal(b1-4)GlcNAc(b1-2)[Fuc(a1-2)Gal(b1-4)GlcNAc(b1-4)]Man(a1-3)[Fuc(a1-2)Gal(b1-4)GlcNAc(b1-2)Man(a1-6)]Man(b1-4)GlcNAc(b1-4)GlcNAc
# Procedure, shortened: as §1
# [24] = target: Fuc(a1-2)Gal(b1-4)GlcNAc(b1-3)Gal(b1-4)GlcNAc
# Procedure, shortened: as §1
binder,measurement,setting,value
"Protein L(A-C2) (Finegoldia magna), Q51912 (protein) ADEPIDLEKLEEKRDKENVGNLPKFDNEVKDGSENPMAKYPDFDDEASTRFETENNEFEEKKVVSDNFFDQSEHPFVENKEETPETPETDSEEEVTIKANLIFANGSTQTAEFKGTFEKATSEAYAYADTLKKDNGEYTVDVADKGYTLNIKFAGKEKTPEEPKEEVTIKANLIYADGKTQTAEFKGTFEEATAEAYRYADALKKDNGEYTVDVADKGYTLNIKFAGKEKTPEEPKEEVTIKANLIYADGKTQTAEFKGTFEEATAEAYRYADLLAKENGKYTVDVADKGYTLNIKFAGKEKTPEEPKEEVTIKANLIYADGKTQTAEFKGTFAEATAEAYRYADLLAKENGKYTADLEDGGYTINIRFAGKKVDEKPEEKEQVTIKENIYFEDGTVQTATFKGTFAEATAEAYRYADLLSKEHGKYTADLEDGGYTINIRFAGKEEPEETPEKPEVQDGYASYEEAEAAAKEALKNDDVNKSYTIRQGADGRYYYVLSPVEAEEEKPEAQNGYATYEEAEAAAKKALENDPINKSYSIRQGADGRYYYVLSPVEAE",glycan array binding signal (z-score),Fuc(a1-2)Gal,-0.528
same,glycan array binding signal (z-score),Fuc(a1-2)Gal(b1-3)GalNAc,-0.127
same,glycan array binding signal (z-score),[1],0.138
same,glycan array binding signal (z-score),[2],-0.969
same,glycan array binding signal (z-score),[3],-0.661
same,glycan array binding signal (z-score),[4],-0.125
same,glycan array binding signal (z-score),[5],-0.488
same,glycan array binding signal (z-score),Fuc(a1-2)Gal(b1-3)GlcNAc,-0.907
same,glycan array binding signal (z-score),[6],1.16
same,glycan array binding signal (z-score),[7],0.295
same,glycan array binding signal (z-score),[8],-0.616
same,glycan array binding signal (z-score),[9],0.095
same,glycan array binding signal (z-score),[10],-0.197
same,glycan array binding signal (z-score),[11],-0.355
same,glycan array binding signal (z-score),[12],0.149
same,glycan array binding signal (z-score),[13],0.57
same,glycan array binding signal (z-score),[14],-1.02
same,glycan array binding signal (z-score),[15],1.58
same,glycan array binding signal (z-score),[16],0.13
same,glycan array binding signal (z-score),[17],-0.496
same,glycan array binding signal (z-score),[18],-0.773
same,glycan array binding signal (z-score),[19],2.19
same,glycan array binding signal (z-score),Fuc(a1-2)Gal(b1-4)Glc,0.513
same,glycan array binding signal (z-score),Fuc(a1-2)Gal(b1-4)Glc6S,-0.321
same,glycan array binding signal (z-score),Fuc(a1-2)Gal(b1-4)GlcNAc,-0.6
same,glycan array binding signal (z-score),[20],0.144
same,glycan array binding signal (z-score),[21],0.851
same,glycan array binding signal (z-score),[22],-0.1
same,glycan array binding signal (z-score),[23],0.469
same,glycan array binding signal (z-score),[24],-0.699

# Two entries from above, tab-delimited.
binder	measurement	setting	value
Protein L(A-C2) (Finegoldia magna), Q51912 (protein) ADEPIDLEKLEEKRDKENVGNLPKFDNEVKDGSENPMAKYPDFDDEASTRFETENNEFEEKKVVSDNFFDQSEHPFVENKEETPETPETDSEEEVTIKANLIFANGSTQTAEFKGTFEKATSEAYAYADTLKKDNGEYTVDVADKGYTLNIKFAGKEKTPEEPKEEVTIKANLIYADGKTQTAEFKGTFEEATAEAYRYADALKKDNGEYTVDVADKGYTLNIKFAGKEKTPEEPKEEVTIKANLIYADGKTQTAEFKGTFEEATAEAYRYADLLAKENGKYTVDVADKGYTLNIKFAGKEKTPEEPKEEVTIKANLIYADGKTQTAEFKGTFAEATAEAYRYADLLAKENGKYTADLEDGGYTINIRFAGKKVDEKPEEKEQVTIKENIYFEDGTVQTATFKGTFAEATAEAYRYADLLSKEHGKYTADLEDGGYTINIRFAGKEEPEETPEKPEVQDGYASYEEAEAAAKEALKNDDVNKSYTIRQGADGRYYYVLSPVEAEEEKPEAQNGYATYEEAEAAAKKALENDPINKSYSIRQGADGRYYYVLSPVEAE	glycan array binding signal (z-score)	[23]	0.469
same	glycan array binding signal (z-score)	[24]	-0.699
